Values quoted from earlier work in patent US20240153607A1, “System for Determining Treatment Timing and Methods of Treatment Timed Based on Biological Process Indicators” (Arcascope Inc., priority 2022, published 2024).
At least one compound was matched to its structure with a doubt left.

Tested on: glioblastoma
Conditions: [Damato]

SMILES: Cn1nnc2c(C(N)=O)ncn2c1=O [temozolomide]
- time-of-day effect on overall treatment efficacy: morning dosing superior
